These are literature values, as cited in US20130109655A1, “Method for mitigating of Prostaglandin E2 reducing side effects of non-steroidal anti-inflammatory drugs” (priority 2011, published 2013).

Data set [1] deals with radioimmunoassayed prostaglandin E (R-PGE). To be noted: naproxen before nicotinic acid infusion; cited from earlier work.
Data set [2] shares this test system. To be noted: naproxen with nicotinic acid; cited from earlier work.

Turning to `COc1ccc2cc([C@H](C)C(=O)O)ccc2c1` [naproxen], the “effect on the increase in plasma R-PGE following nicotinic acid” value in data set [1] is recorded as “totally abolished”. In addition, the “effect on the increase in forearm release of R-PGE induced by nicotinic acid” value in data set [2] was “completely blocks”.
